{
  "sequences": {"note": "The chains behind the UniProt entries cited, without tags or fusion partners. Where a name states a change or a piece, a line headed by the entry shows the natural chain unless it says otherwise.", "UniProt Q5T011": "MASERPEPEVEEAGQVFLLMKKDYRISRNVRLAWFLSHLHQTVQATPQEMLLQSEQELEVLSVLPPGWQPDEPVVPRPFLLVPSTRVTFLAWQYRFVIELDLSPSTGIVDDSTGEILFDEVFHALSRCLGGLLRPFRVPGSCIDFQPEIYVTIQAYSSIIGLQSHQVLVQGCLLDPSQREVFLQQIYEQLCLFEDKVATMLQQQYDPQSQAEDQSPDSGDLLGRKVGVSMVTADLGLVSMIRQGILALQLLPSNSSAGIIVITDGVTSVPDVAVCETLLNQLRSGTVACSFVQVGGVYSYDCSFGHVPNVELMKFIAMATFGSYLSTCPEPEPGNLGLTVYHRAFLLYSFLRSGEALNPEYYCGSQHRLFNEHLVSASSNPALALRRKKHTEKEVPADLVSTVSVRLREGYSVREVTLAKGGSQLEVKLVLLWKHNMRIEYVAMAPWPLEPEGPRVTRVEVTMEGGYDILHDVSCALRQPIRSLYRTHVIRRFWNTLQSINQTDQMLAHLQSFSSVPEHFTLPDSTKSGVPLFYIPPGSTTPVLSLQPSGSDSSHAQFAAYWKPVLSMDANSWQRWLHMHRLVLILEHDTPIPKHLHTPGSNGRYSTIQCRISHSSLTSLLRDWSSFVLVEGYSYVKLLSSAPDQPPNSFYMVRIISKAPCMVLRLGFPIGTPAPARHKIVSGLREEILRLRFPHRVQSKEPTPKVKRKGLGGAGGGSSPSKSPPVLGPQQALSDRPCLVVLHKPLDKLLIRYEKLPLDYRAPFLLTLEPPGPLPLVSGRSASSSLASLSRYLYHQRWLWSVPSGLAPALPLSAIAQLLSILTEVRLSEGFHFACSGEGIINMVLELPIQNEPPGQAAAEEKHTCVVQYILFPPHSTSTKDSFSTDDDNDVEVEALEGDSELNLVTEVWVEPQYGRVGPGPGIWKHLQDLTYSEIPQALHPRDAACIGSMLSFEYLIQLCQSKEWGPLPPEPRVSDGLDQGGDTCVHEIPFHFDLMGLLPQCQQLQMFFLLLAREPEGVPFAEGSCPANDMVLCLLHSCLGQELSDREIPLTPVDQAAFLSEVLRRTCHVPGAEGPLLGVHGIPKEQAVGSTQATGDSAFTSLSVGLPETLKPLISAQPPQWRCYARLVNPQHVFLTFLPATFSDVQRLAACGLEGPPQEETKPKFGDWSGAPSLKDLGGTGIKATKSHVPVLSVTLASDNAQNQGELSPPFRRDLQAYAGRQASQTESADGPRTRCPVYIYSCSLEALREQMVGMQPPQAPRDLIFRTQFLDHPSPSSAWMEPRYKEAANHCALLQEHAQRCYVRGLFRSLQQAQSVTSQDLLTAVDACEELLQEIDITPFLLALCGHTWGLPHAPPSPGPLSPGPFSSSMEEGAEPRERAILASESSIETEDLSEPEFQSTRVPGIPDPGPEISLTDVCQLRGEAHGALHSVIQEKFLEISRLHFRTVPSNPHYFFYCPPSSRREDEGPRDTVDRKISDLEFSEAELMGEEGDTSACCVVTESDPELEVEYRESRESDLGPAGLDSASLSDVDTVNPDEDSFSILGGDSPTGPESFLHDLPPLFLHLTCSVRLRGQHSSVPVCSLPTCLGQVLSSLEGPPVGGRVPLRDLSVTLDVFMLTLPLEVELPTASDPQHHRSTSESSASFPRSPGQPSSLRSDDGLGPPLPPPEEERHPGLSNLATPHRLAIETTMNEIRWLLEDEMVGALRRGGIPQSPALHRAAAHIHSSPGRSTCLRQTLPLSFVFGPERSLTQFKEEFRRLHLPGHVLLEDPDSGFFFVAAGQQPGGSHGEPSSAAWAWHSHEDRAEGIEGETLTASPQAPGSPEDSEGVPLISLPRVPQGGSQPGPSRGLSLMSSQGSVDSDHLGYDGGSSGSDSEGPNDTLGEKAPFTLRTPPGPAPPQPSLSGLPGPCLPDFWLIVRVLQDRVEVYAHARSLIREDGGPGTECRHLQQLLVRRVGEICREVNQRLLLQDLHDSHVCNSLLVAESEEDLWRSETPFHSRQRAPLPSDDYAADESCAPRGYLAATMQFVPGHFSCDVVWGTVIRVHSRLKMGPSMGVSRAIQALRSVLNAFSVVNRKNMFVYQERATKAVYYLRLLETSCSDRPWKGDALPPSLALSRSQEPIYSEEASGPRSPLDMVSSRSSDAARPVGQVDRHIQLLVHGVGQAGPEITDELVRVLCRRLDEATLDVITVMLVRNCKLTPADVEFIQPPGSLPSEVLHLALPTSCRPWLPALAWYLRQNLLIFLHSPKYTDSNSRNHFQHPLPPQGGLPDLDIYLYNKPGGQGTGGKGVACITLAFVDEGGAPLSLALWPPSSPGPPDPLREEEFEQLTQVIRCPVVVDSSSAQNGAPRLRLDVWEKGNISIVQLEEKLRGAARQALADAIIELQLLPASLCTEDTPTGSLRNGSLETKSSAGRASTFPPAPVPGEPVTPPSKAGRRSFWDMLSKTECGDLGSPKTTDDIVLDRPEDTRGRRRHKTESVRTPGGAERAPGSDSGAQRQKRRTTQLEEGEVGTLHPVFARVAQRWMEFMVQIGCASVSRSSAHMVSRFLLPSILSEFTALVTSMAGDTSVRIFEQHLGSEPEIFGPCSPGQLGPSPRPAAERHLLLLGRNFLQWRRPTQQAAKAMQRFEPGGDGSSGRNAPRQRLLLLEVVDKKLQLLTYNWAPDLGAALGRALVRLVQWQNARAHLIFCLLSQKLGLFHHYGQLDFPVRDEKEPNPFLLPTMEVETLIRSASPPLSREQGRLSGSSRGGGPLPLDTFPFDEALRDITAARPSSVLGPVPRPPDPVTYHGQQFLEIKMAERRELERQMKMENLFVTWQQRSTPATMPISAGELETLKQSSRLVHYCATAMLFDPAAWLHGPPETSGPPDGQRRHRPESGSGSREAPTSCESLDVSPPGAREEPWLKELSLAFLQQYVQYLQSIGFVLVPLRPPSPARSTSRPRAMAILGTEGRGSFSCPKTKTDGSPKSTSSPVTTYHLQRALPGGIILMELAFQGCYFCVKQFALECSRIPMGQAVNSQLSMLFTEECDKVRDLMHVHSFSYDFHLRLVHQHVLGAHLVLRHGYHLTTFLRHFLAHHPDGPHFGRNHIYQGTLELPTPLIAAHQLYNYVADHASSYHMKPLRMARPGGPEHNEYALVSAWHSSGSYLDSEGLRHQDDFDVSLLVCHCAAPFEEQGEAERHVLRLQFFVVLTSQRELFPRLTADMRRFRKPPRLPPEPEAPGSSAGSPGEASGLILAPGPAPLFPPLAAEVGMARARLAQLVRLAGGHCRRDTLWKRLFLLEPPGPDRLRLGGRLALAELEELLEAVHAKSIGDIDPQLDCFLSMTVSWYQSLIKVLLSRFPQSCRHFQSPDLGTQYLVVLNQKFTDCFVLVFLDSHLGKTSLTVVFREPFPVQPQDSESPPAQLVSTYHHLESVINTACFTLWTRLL", "UniProt P78318": "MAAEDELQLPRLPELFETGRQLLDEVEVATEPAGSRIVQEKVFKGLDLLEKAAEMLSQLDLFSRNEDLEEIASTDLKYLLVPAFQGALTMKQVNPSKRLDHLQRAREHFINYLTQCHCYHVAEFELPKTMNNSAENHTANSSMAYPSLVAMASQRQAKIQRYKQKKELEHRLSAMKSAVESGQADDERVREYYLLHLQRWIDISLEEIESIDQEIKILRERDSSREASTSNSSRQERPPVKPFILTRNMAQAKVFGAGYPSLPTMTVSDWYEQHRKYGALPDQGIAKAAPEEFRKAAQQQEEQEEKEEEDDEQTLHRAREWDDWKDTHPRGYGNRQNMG", "UniProt Q0VDF9": "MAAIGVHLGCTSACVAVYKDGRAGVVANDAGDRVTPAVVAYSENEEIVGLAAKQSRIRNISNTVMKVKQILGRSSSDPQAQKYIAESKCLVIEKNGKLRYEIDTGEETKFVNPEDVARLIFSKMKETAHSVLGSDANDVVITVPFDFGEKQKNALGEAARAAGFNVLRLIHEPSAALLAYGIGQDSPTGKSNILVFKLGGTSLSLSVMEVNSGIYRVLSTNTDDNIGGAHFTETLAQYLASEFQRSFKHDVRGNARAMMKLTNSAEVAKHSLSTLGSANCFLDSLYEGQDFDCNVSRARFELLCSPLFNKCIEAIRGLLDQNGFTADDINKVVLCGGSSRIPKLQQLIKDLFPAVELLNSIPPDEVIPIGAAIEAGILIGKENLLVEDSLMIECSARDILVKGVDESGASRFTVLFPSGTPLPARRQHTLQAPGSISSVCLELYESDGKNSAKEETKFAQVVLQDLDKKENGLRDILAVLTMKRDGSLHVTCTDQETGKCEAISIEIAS", "UniProt Q8N201, whole entry": "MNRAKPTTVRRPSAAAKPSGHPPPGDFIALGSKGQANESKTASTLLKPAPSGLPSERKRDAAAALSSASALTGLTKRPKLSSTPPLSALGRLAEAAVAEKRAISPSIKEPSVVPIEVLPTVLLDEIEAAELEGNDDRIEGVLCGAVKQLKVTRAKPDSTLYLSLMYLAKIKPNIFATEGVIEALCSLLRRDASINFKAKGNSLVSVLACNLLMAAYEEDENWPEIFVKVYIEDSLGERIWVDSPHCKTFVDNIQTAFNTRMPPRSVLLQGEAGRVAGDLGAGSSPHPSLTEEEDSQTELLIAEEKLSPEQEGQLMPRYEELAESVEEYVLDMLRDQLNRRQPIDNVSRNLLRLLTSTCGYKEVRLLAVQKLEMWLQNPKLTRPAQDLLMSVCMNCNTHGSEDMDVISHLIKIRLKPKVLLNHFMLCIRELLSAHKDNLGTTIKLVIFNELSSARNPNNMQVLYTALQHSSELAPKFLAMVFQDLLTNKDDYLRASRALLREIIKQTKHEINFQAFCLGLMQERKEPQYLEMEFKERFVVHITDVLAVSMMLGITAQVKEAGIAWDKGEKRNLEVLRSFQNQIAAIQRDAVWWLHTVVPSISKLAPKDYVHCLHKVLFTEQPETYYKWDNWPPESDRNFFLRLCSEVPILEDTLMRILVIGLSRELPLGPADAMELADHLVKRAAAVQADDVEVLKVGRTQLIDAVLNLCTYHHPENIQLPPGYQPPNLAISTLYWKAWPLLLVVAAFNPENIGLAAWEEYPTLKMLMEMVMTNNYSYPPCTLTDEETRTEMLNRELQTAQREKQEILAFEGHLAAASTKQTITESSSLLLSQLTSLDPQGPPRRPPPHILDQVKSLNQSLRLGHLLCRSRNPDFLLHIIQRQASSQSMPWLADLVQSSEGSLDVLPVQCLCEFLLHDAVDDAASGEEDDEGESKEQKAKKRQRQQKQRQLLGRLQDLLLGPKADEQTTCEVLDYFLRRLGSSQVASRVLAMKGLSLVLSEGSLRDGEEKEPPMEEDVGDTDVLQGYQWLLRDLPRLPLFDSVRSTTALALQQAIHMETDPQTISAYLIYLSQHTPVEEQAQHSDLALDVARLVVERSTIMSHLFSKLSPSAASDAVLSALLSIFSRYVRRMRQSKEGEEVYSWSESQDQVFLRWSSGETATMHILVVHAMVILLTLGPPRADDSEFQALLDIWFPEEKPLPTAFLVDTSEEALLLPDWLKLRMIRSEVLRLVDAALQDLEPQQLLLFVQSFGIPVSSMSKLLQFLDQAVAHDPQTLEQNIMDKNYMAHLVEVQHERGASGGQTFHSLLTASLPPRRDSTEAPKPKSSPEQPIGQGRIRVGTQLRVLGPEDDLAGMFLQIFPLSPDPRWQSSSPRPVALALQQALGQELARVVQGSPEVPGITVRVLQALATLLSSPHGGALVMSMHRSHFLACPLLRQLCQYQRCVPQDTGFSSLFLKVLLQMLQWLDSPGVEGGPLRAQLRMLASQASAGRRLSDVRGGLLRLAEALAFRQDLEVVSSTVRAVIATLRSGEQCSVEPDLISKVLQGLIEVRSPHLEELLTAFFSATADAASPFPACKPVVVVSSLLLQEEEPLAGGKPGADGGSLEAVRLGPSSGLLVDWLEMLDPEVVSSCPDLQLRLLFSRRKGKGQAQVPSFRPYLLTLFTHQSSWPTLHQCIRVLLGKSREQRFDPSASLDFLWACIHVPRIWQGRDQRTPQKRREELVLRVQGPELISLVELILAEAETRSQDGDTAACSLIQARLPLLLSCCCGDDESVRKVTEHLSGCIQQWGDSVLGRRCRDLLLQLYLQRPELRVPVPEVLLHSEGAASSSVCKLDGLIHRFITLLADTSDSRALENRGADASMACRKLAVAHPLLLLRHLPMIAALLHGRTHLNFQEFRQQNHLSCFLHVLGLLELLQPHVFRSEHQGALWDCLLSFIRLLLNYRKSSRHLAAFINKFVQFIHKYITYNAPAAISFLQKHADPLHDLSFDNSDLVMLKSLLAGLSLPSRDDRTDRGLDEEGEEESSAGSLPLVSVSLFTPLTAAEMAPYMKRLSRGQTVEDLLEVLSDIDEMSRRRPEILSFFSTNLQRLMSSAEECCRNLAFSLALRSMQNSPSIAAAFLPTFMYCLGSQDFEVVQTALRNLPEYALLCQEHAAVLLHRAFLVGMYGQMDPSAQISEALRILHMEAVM"},
  "source": "the supplement of paper PMC7666118",
  "note": "Some of the results follow.",
  "data": [
    {"compound": "COc1ccc(Cn2ccc3ccc(C(=O)NO)cc32)cc1", "experiment": "dose-dependent thermal stabilisation call (2D-TPP, DLPTP, 10% FDR) (binary (1 = stabilised)); higher = stabilised by the compound", "settings": "system: HL-60 intact cells; concentration range 0.04-10 µM", "values": [
      {"target": "ITFG2 (UniProt Q969R8)", "dose-dependent thermal stabilisation call": "inactive: 0"},
      {"target": "ITSN1 (UniProt Q15811)", "dose-dependent thermal stabilisation call": "inactive: 0"},
      {"target": "IKBKB (UniProt O14920)", "dose-dependent thermal stabilisation call": "inactive: 0"},
      {"target": "INTS9 (UniProt Q9NV88)", "dose-dependent thermal stabilisation call": "inactive: 0"},
      {"target": "IFT57 (UniProt Q9NWB7)", "dose-dependent thermal stabilisation call": "inactive: 0"},
      {"target": "KIAA0528 (UniProt Q86YS7)", "dose-dependent thermal stabilisation call": "inactive: 0"},
      {"target": "HSP90AB1 (UniProt P08238)", "dose-dependent thermal stabilisation call": "inactive: 0"},
      {"target": "ITPA (UniProt Q9BY32)", "dose-dependent thermal stabilisation call": "inactive: 0"},
      {"target": "IFT81 (UniProt Q8WYA0)", "dose-dependent thermal stabilisation call": "inactive: 0"},
      {"target": "HSH2D (UniProt Q96JZ2)", "dose-dependent thermal stabilisation call": "inactive: 0"},
      {"target": "KBTBD2 (UniProt Q8IY47)", "dose-dependent thermal stabilisation call": "inactive: 0"},
      {"target": "KIAA0467 (UniProt Q5T011)", "dose-dependent thermal stabilisation call": "inactive: 0"},
      {"target": "ILKAP (UniProt Q9H0C8)", "dose-dependent thermal stabilisation call": "inactive: 0"},
      {"target": "KIAA0368 (UniProt Q5VYK3)", "dose-dependent thermal stabilisation call": "inactive: 0"},
      {"target": "INCENP (UniProt Q9NQS7)", "dose-dependent thermal stabilisation call": "inactive: 0"},
      {"target": "IGBP1 (UniProt P78318)", "dose-dependent thermal stabilisation call": "inactive: 0"},
      {"target": "IMPAD1 (UniProt Q9NX62)", "dose-dependent thermal stabilisation call": "inactive: 0"},
      {"target": "KCTD9 (UniProt Q7L273)", "dose-dependent thermal stabilisation call": "inactive: 0"},
      {"target": "ITPRIP (UniProt Q8IWB1)", "dose-dependent thermal stabilisation call": "inactive: 0"},
      {"target": "HSPA2 (UniProt P54652)", "dose-dependent thermal stabilisation call": "inactive: 0"},
      {"target": "IL27RA (UniProt Q6UWB1)", "dose-dependent thermal stabilisation call": "inactive: 0"},
      {"target": "HMGCS1 (UniProt Q01581)", "dose-dependent thermal stabilisation call": "inactive: 0"},
      {"target": "HSPA14 (UniProt Q0VDF9)", "dose-dependent thermal stabilisation call": "inactive: 0"},
      {"target": "KATNA1 (UniProt O75449)", "dose-dependent thermal stabilisation call": "inactive: 0"},
      {"target": "HPS1 (UniProt Q92902)", "dose-dependent thermal stabilisation call": "inactive: 0"},
      {"target": "KIAA0415 (UniProt O43299)", "dose-dependent thermal stabilisation call": "inactive: 0"},
      {"target": "HMGB3 (UniProt O15347)", "dose-dependent thermal stabilisation call": "inactive: 0"},
      {"target": "INTS10 (UniProt Q9NVR2)", "dose-dependent thermal stabilisation call": "inactive: 0"},
      {"target": "KBTBD8 (UniProt Q8NFY9)", "dose-dependent thermal stabilisation call": "inactive: 0"},
      {"target": "INTS1 (UniProt Q8N201)", "dose-dependent thermal stabilisation call": "inactive: 0"},
      {"target": "IQGAP1 (UniProt P46940)", "dose-dependent thermal stabilisation call": "inactive: 0"},
      {"target": "IREB2 (UniProt P48200)", "dose-dependent thermal stabilisation call": "inactive: 0"},
      {"target": "IRF3 (UniProt Q14653)", "dose-dependent thermal stabilisation call": "inactive: 0"},
      {"target": "HSPA13 (UniProt P48723)", "dose-dependent thermal stabilisation call": "inactive: 0"},
      {"target": "HPS4 (UniProt Q9NQG7)", "dose-dependent thermal stabilisation call": "inactive: 0"},
      {"target": "KIAA0100 (UniProt Q14667)", "dose-dependent thermal stabilisation call": "inactive: 0"},
      {"target": "INTS5 (UniProt Q6P9B9)", "dose-dependent thermal stabilisation call": "inactive: 0"}
    ]}
  ]
}
